Experimental data published in US11339154B2, “Heterocycle-substituted bicyclic azole pesticides” (FMC Corporation, priority 2016, dated 2022).
Where two headings read alike, the source gives them in different places. Some of these results come from one statement about several compounds together.

Tests used:
Type in all cases: in vivo
[1] = tested on: diamondback moth (Plutella xylostella (L.)); experiment: Test A: control of diamondback moth on mustard plant, spray; settings: 250 ppm spray; 6 days, 25° C.; very good to excellent control; criterion is feeding damage and/or 100% mortality
[2] = tested on: Western Flower Thrips (Frankliniellla occidentalis (Pergande)); experiment: Test F: control of Western Flower Thrips on Soleil bean plant, contact and/or systemic, spray; settings: 250 ppm spray; 6 days; very good to excellent control; criterion is plant damage and/or 100% mortality
Description: (§1) Formulation and Spray Methodology for Tests A-F
(§2) Test compounds were formulated using a solution containing 10% acetone, 90% water and 300 ppm X-77® Spreader Lo-Foam Formula non-ionic surfactant containing alkylarylpolyoxyethylene, free fatty acids, glycols and isopropanol (Loveland Industries, Inc. Greeley, Colo., USA). The formulated compounds were applied in 1 mL of liquid through a SUJ2 atomizer nozzle with 1/8 JJ custom body (Spraying Systems Co. Wheaton, Ill., USA) positioned 1.27 cm (0.5 inches) above the top of each test unit. Test compounds were sprayed at the rates indicated, and each test was replicated three times.
For evaluating control of the Western Flower Thrips (Frankliniellla occidentalis (Pergande)) through contact and/or systemic means, the test unit consisted of a small open container with a 5-7-day-old Soleil bean plant inside.
Test compounds were formulated and sprayed at 250 and/or 50 ppm. After spraying, the test units were allowed to dry for 1 hour, and then 22-27 adult thrips were added to each unit. A black, screened cap was placed on top, and the test units were held for 6 days at 25° C. and 45-55% relative humidity.

[3] = tested on: sweetpotato whitefly (Bemisia tabaci (Gennadius)); settings: 250 ppm spray; 13 days
Description: as §1, §2
For evaluating control of the sweetpotato whitefly (Bemisia tabaci (Gennadius)) through contact and/or systemic means, the test unit consisted of a small open container with a 12-14-day-old cotton plant inside. Prior to the spray application, both cotyledons were removed from the plant, leaving one true leaf for the assay. Adult whiteflies were allowed to lay eggs on the plant and then were removed from the test unit. Cotton plants infested with at least 15 eggs were submitted to the test for spraying.
Test compounds were formulated and sprayed at 250 and/or 50 ppm. After spraying, the test units were allowed to dry for 1 hour. The cylinders were then removed, and the units were taken to a growth chamber and held for 13 days at 28° C. and 50-70% relative humidity. Each test unit was then visually assessed for insect mortality.

[4] = tested on: cotton melon aphid (Aphis gossypii (Glover)); settings: 50 ppm spray; 6 days
Description: as §1, §2
For evaluating control of cotton melon aphid (Aphis gossypii (Glover)) through contact and/or systemic means, the test unit consisted of a small open container with a 6-7-day-old cotton plant inside. This was pre-infested with 30-40 insects on a piece of leaf according to the cut-leaf method, and the soil of the test unit was covered with a layer of sand.
Test compounds were formulated and sprayed at 250 and/or 50 ppm. After spraying, the test units were maintained in a growth chamber for 6 days at 19° C. and 70% relative humidity. Each test unit was then visually assessed for insect mortality.

[5] = tested on: green peach aphid (Myzus persicae (Sulzer)); settings: 6 days
Description: as §1, §2
For evaluating control of green peach aphid (Myzus persicae (Sulzer)) through contact and/or systemic means, the test unit consisted of a small open container with a 12-15-day-old radish plant inside. This was pre-infested by placing on a leaf of the test plant 30-40 aphids on a piece of leaf excised from a culture plant (cut-leaf method). The aphids moved onto the test plant as the leaf piece desiccated. After pre-infestation, the soil of the test unit was covered with a layer of sand.
Test compounds were formulated and sprayed at 250 and/or 50 ppm. After spraying of the formulated test compound, each test unit was allowed to dry for 1 hour and then a black, screened cap was placed on top. The test units were held for 6 days in a growth chamber at 19-21° C. and 50-70% relative humidity. Each test unit was then visually assessed for insect mortality.

[6] = tested on: potato leafhopper (Empoasca fabae (Harris)); experiment: Test D: control of potato leafhopper on Soleil bean plant, contact and/or systemic, spray; settings: 250 ppm spray; 6 days

Row | SMILES | mortality [3] | mortality ([5]; 50 ppm spray) | also measured
1 | COC(CNC(=O)c1ccc(-c2ccc3nn(-c4cccnc4)cc3c2)cc1)OC [Compound 11] |  |  | control efficacy: feeding damage (40% or less feeding damage and/or 100% mortality) [1]: ≤ 40%
2 | COC(CNC(=O)c1ccc(-c2ccc3nn(-c4cccnc4)cc3c2)c(Cl)c1)OC [Compound 18] |  |  | control efficacy: plant damage (30% or less plant damage and/or 100% mortality) [2]: ≤ 30%
3 | COC(CNC(=O)C(C)(C)NC(=O)c1cccc(-c2ccc3nn(-c4cccnc4)cc3c2)c1)OC [Compound 29] |  |  | control efficacy: plant damage (30% or less plant damage and/or 100% mortality) [2]: ≤ 30%
4 | CC(=NOc1ncccn1)c1sc(-c2ccc3nn(-c4cccnc4)cc3c2)nc1C [Compound 48] | at least 50% |  | 
5 | Cc1nc(-c2ccc3nn(-c4cccnc4)cc3c2)sc1C(=O)NCC(F)(F)F [Compound 55] | at least 50% |  | 
6 | CSCC(C)(C)NC(=O)c1sc(-c2ccc3nn(-c4cccnc4)cc3c2)nc1C [Compound 56] | at least 50% | at least 80% | mortality [4]: at least 80%
7 | COC(=O)NNC(=O)c1sc(-c2ccc3nn(-c4cccnc4)cc3c2)nc1C [Compound 57] | at least 50% |  | 
8 | CSCCNC(=O)c1sc(-c2ccc3nn(-c4cccnc4)cc3c2)nc1C [Compound 58] | at least 50% | at least 80% | 
9 | C=CCON=Cc1sc(-c2ccc3nn(-c4cccnc4)cc3c2)nc1C [Compound 59] | at least 50% | at least 80% | mortality [4]: at least 80%
10 | O=C(NC1CC1)c1ncsc1-c1ccc2nn(-c3cccnc3)cc2c1 [Compound 79] |  | at least 80% | control efficacy: plant damage (30% or less plant damage and/or 100% mortality) [2]: ≤ 30%; mortality ([5]; 250 ppm spray): at least 80%
11 | CNC(=O)C(C)(C)NC(=O)c1ccc(-c2ccc3nn(-c4cncc(F)c4)cc3c2)cc1 [Compound 80] |  | at least 80% | mortality [4]: at least 80%; mortality [6]: at least 80%
12 | CN(C)C(=O)C(C)(C)NC(=O)c1ccc(-c2ccc3nn(-c4cncc(F)c4)cc3c2)cc1 [Compound 81] |  |  | mortality [6]: at least 80%
13 | COC(=O)C(C)(C)NC(=O)c1ccc(-c2ccc3nn(-c4cncc(F)c4)cc3c2)cc1 [Compound 83] |  |  | mortality [6]: at least 80%
14 | CC(=O)Cn1nc(-c2ccc3nn(-c4cccnc4)cc3c2)ccc1=O [Compound 84] | at least 50% | at least 80% | mortality [4]: at least 80%
15 | CN(C)C(=O)C1(NC(=O)c2cncc(-c3ccc4nn(-c5cccnc5)cc4c3)c2)CC1 [Compound 90] |  |  | control efficacy: plant damage (30% or less plant damage and/or 100% mortality) [2]: ≤ 30%
16 | COC(CNC(=O)COc1cccc(-c2ccc3nn(-c4cccnc4)cc3c2)c1)OC [Compound 106] | at least 50% | at least 80% | mortality [4]: at least 80%
17 | CN(C)C(=O)C1(NC(=O)c2nnc(-c3ccc4nn(-c5cccnc5)cc4c3)s2)CC1 [Compound 111] |  |  | control efficacy: feeding damage (40% or less feeding damage and/or 100% mortality) [1]: ≤ 40%
